Inconclusive means that the source gave no clear call. Such entries were picked first, then a sample of the others. Potencies beside an inconclusive call are fits to weak or partial responses and may not hold up. Active and inactive are the calls of the source. The calls were made as follows: active = hit-call score of the fitted dose curve at least 0.9, where 1 is the maximum; inconclusive = response in the unintended direction; inactive = score below 0.9.
Each molecule was assayed against human CYP4F12, CYP4F12 (gene 66002) (UniProt Q9HCS2) (assay: NVS_ADME_hCYP4F12: NovaScreen (NVS) CYP450-related Enzyme Activity (ADME) Assay for human CYP4F12 (AID 2283111)).
Protocol: NVS_ADME_hCYP4F12 is a biochemical, single-readout assay that uses extracted gene-proteins in a cell-free assay. Measurements were taken 0.5 hour after chemical dosing in a 384-well plate.NVS_ADME_hCYP4F12 is one of one assay component(s) measured or calculated from the NVS_ADME_hCYP4F12 assay. It is designed to make measurements of enzyme activity, a form of enzyme reporter, as detected with fluorescence intensity signals by Fluorescence technology.Data from the assay component NVS_ADME_hCYP4F12 was analyzed into 1 assay endpoint. This assay endpoint, NVS_ADME_hCYP4F12, was analyzed in the positive analysis fitting direction relative to Acetonitrile as the negative control and baseline of activity. Using a type of enzyme reporter, loss-of-signal activity can be used to understand changes in the enzymatic activity as they relate to the gene CYP4F12. Furthermore, this assay endpoint can be referred to as a primary readout, because this assay has produced multiple assay endpoints where this one serves a enzymatic activity function. To generalize the intended target to other relatable targets, this assay endpoint is annotated to the cyp intended target family, where the subfamily is xenobiotic metabolism.
Binding assays used specific radioligands (tritiated, iodinated) with non-radioactive competitive displacement ligands in agonist or antagonist protocols (as indicated) and various reference compounds and inhibitors to titrate specific binding to receptors and transporters. Most enzyme assays (CYPs, kinases, phosphatases, proteases, HDACs) used recombinant protein and specific substrates (fluorescence mostly, some colorimetric and radioactive) and inhibitors, followed by a biochemical separation of substrate and product. All assays for the biochemical HTS were initially run in duplicate at a single concentration (10 uM for CYP450 assays and 25 uM for all others). […] Each assay was run with positive and negative controls, and concurrent controls on every plate. The follow-up (secondary) screen tested active chemical-pairs in concentration series, as well as a few additional assays not tested in the primary screen, some selected negative inactives, and several cases re-run in the concentration series for confirmatory purposes.

Protein sequences, listed by entry. Tags and fused reporters are not part of them. Lines headed by an entry give the natural chain unless they say otherwise; changes in a name come on top.
UniProt Q9HCS2: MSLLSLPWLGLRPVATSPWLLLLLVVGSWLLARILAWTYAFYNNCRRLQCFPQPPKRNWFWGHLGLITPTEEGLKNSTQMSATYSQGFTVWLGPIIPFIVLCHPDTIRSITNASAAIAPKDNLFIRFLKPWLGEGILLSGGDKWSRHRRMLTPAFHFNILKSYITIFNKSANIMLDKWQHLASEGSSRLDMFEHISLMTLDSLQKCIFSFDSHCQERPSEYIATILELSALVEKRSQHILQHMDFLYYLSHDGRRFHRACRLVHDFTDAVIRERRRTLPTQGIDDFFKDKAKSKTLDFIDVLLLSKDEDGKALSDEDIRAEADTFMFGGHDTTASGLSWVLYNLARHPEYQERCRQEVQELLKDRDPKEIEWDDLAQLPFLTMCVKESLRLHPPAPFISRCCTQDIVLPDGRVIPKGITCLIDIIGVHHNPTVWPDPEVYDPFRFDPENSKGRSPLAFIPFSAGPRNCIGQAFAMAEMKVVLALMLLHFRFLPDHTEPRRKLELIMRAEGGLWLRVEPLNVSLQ

Row | SMILES | outcome | AC50
1 | Cc1ccc(O)c(C)c1 | inactive | 
2 | Cc1ccc([N+](=O)[O-])cc1 | inactive | 
3 | CO/N=C(/C1=NOCCO1)c1ccccc1Oc1ncnc(Oc2ccccc2Cl)c1F |  | inconclusive: 0.955 µM
4 | CCCN(CCC)N=O |  | inconclusive: 10 µM
5 | CCOc1cccc(C2(N3CCN(c4ccccc4)CC3)CCC(C)CC2)c1 (stereo not given) |  | active: 4.36 µM
6 | O=S(=O)(O)C(F)(F)C(F)(F)C(F)(F)C(F)(F)C(F)(F)C(F)(F)F |  | inconclusive: 0.0875 µM
7 | C=CCOC(=O)C(C)(C)OC(=O)c1cc(-n2c(=O)cc(C(F)(F)F)n(C)c2=O)ccc1Cl |  | inconclusive: 0.542 µM
8 | CCCN(CCC)c1c([N+](=O)[O-])cc(S(N)(=O)=O)cc1[N+](=O)[O-] |  | inconclusive: 10.6 µM
9 | O=[N+]([O-])c1ccccc1 | inactive | 
10 | CO/C=C(/C(=O)OC)c1ccccc1Oc1cc(Oc2ccccc2C#N)ncn1 |  | inconclusive: 0.635 µM
11 | CCC12COCN1COC2 |  | inconclusive: 2.65 µM
12 | N#CC(CCc1ccc(Cl)cc1)(Cn1cncn1)c1ccccc1 (stereo not given) |  | inconclusive: 0.253 µM
13 | COc1ccc(C(c2ccc(OC)cc2)C(Cl)(Cl)Cl)cc1 | inactive | 
14 | COc1cccc(C(=O)NN(C(=O)c2cc(C)cc(C)c2)C(C)(C)C)c1C |  | inconclusive: 0.00986 µM
15 | O=C(Oc1ccc(Br)cc1)N1CCN2CCC1CC2 |  | inconclusive: 0.286 µM

Two compounds picked at random from those above:
Row | SMILES | outcome | AC50
9 | O=[N+]([O-])c1ccccc1 | inactive | 
5 | CCOc1cccc(C2(N3CCN(c4ccccc4)CC3)CCC(C)CC2)c1 (stereo not given) |  | active: 4.36 µM
